Measurements from patent publication US10933113B2, “Use of a compound, pharmaceutical composition, and therapeutic method for the treatment or prevention of convulsions” (PROTEIMAX BIO[…]A, priority 2016, dated 2021).
Some of these results come from one statement about several compounds together.

System: pilocarpine model
Assay: pilocarpine model, oral test compound 10 minutes before intraperitoneal pilocarpine
Format: in vivo, Mus musculus or mouse
Conditions: pilocarpine 320 mg/kg i.p.
Procedure: In some instances, the anticonvulsive effects of the composition of the invention have been evaluated in vivo upon oral administration to animals. The pharmaceutical composition of the invention was administered to mammals (Mus musculus or mouse) with oral dose of treatment, as compared to other compounds or to saline control. In these experiments, the test compounds were administered orally 10 minutes prior to the (intraperitoneal) administration of pilocarpine. Pilocarpine hydrochloride (320 mg/kg, Merck), dissolved in 0.9% sterile saline, was given intraperitoneally for induction of SE (status epileticus) (Turski et al., 1983). In the Turski model, the neurotoxic effects begin about 15-25 minutes after the injection of Pilo, with the occurrence of motor and limbic seizures, the animals evolving to a state of continuous (clonic) seizures that characterize SE Sanabria and Cavalheiro, 2000).
In this embodiment, the anticonvulsant effect of the composition of the invention prepared according to example 1 was evaluated by prior administration of the inventive composition and subsequent administration of pilocarpine to animals. Administration of pilocarpine leads to severe brain damage, neurotoxicity, and usually culminates in the death of animals.
The composition of the invention prepared according to Example 1 was pre-administered to the animals.

Row | Compound | time in which the animals died after pilocarpine (1000 μg/kg oral) | time in which the animals died after pilocarpine (600 μg/kg oral)
1 | DIIADDEPLT [peptide used as another control, reference compound] | less than 20 minutes | 
2 | CC(C)C[C@H](NC(=O)[C@H](Cc1ccccc1)NC(=O)[C@H](CCCCN)NC(=O)[C@H](Cc1ccccc1)NC(=O)[C@H](CC(N)=O)NC(=O)[C@@H](NC(=O)[C@@H]1CCCN1)C(C)C)C(=O)N[C@@H](CO)C(=O)N[C@@H](Cc1cnc[nH]1)C(=O)O [Hp, PVNFKFLSH] |  | less than 20 minutes
